Results on three molecules are retold here after article PMC7666153, “The phosphorylated regulator of chemotaxis is crucial throughout biofilm biogenesis in Shewanella oneidensis” (NPJ Biofilms and Microbiomes, 2020).

By UniProt entry, the sequences of proteins in these tests, tags left out. Where a name states a change or a piece, a line headed by the entry shows the natural chain unless it says otherwise.
UniProt Q8ECD4: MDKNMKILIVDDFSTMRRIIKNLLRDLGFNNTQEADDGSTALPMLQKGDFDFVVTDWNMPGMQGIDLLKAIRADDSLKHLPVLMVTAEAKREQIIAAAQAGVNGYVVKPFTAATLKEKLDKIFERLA

The target in test [1] is His-tagged SO4207S (soluble cytoplasmic domain of SO4207, D388 to N625) (S. oneidensis) (UniProt Q8E9Q9). The experiment in a line: cross-linking; Strep-tagged CheY3 (11.8 µM) and His-tagged SO4207S (3.1 µM), together or separately, 5 mM EDC, 1 h at room temperature, 10 mM cacodylate buffer; SDS-PAGE and blot with HisProbe-HRP; both purified.
Test [2] deals with T1, T25-MxdA (S. oneidensis) (UniProt Q8E9T3).
T1 sequence: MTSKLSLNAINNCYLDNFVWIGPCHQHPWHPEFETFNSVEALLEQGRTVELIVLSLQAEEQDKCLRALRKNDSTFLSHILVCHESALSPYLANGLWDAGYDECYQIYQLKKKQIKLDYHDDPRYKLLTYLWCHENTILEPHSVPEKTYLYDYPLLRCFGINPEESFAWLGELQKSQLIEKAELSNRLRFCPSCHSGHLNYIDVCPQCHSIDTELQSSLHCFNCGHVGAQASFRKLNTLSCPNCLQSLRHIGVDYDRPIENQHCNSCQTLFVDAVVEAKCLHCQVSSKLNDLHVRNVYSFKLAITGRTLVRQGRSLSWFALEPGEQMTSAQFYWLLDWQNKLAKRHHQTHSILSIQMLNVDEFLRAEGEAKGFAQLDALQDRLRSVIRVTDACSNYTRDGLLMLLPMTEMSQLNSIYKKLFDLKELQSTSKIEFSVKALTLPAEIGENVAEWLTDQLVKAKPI
The experiment in a line: two-hybrid.

The target of test [3] is T25-SO4407 (S. oneidensis) (UniProt Q8E979). The experiment in a line: two-hybrid.
Test [4] has as its target T25-SO4207 (cytoplasmic domain of SO4207, D388 to N625) (S. oneidensis). The experiment in a line: two-hybrid.

These are yes or no findings as the source states them, for the method shown. For some of these results: Binding can be weak; no strength is given.

Turning to “Strep-tagged CheY3 (from UniProt Q8ECD4)”, the binding result in test [1] is “binds”. Turning to T18-CheYVC (from UniProt A0A0H3AMJ9), in test [2], the binding result is “binds”.

B1: T18-MxdA (protein, UniProt Q8E9T3 1-462)
chain: MTSKLSLNAINNCYLDNFVWIGPCHQHPWHPEFETFNSVEALLEQGRTVELIVLSLQAEEQDKCLRALRKNDSTFLSHILVCHESALSPYLANGLWDAGYDECYQIYQLKKKQIKLDYHDDPRYKLLTYLWCHENTILEPHSVPEKTYLYDYPLLRCFGINPEESFAWLGELQKSQLIEKAELSNRLRFCPSCHSGHLNYIDVCPQCHSIDTELQSSLHCFNCGHVGAQASFRKLNTLSCPNCLQSLRHIGVDYDRPIENQHCNSCQTLFVDAVVEAKCLHCQVSSKLNDLHVRNVYSFKLAITGRTLVRQGRSLSWFALEPGEQMTSAQFYWLLDWQNKLAKRHHQTHSILSIQMLNVDEFLRAEGEAKGFAQLDALQDRLRSVIRVTDACSNYTRDGLLMLLPMTEMSQLNSIYKKLFDLKELQSTSKIEFSVKALTLPAEIGENVAEWLTDQLVKAKPI
Take B1: the binding entry in test [3] and in test [4] was “no binding” throughout.
